Reference: PubChem BioAssay AID602196 (INSERM, 2012)

Purpose: 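Genes whose knock-down alters cisplatin killing of lung cancer cells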
System: human A549 lung cancer cells
Reagents: siRNA pair against human genes
Time to read-out: 48 h transfection before cisplatin; time from cisplatin to read-out not stated
Challenge: cisplatin at a dose killing half of control-siRNA cells; exact dose and duration not given
Measured: 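Shift in cisplatin death relative to control siRNA, from -50 (all cells die) to +50 (no cells die); siRNAs harmful on their own scored 0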
Direction: two-siRNA summed score (-2 to +2): higher = both siRNAs protect from cisplatin killing; -2 means both sensitise
Active means: 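Each siRNA scores 0 if harmful alone by LDH or WST-1, otherwise +1 if it reduces and -1 if it increases cisplatin killing; a gene is active when both siRNAs agree (sum +2 or -2)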
Meaning of the calls: active = both siRNAs shift cisplatin killing the same way; inactive = no consistent shift, or siRNA harmful alone
The deposit covers about 23,000 reagents; this is a random part of them. Over the whole deposit, 455 (2%) were called active. 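Active includes both protection and sensitisation; some change values fall well beyond the stated -50 to +50 range.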 A number with no mark means an inactive call. Further read-outs or replicates are left out here. No sequences are given here. The record does not give: the amount of reagent.

target gene | two-siRNA summed score (-2 to +2)
ALDH18A1 | 0
ZNF277 | 0
UNC50 | 0
LOC441352 | 0
SLC22A5 | 0
HSD17B10 | 0
CAPRIN2 | 0
ARHGAP32 | -1
RP11-19J3.3 | 0
LOC440034 | 0
KDM6A | 0
CCM2L | 0
LOC151154 | 0
CAVIN1 | 0
NRROS | 0
MRPL21 | 0
NT5C3B | 1
DEFA1 | 1
LOC400955 | 0
SOCS4 | 0
DKFZp686L21136 | 0
CALHM1 | 0
NFATC3 | 0
LYRM2 | 0
MAPRE3 | 0
LOC441413 | 0
SLU7 | 0
SPIB | 0
OFD1 | 0
EXOSC6 | 0
LOC439982 | -1
MXD1 | -1
MAGEB6B | 0
RACGAP1 | -1

Sorted by “two-siRNA summed score (-2 to +2)” (high to low): 3 of the entries above
target gene | two-siRNA summed score (-2 to +2)
SOCS4 | 0
DKFZp686L21136 | 0
CALHM1 | 0

Continued.
target gene | two-siRNA summed score (-2 to +2)
CEP135 | 1
TGS1 | 0
TYRO3 | 1
SDF2L1 | 0
NOVA2 | -1
FAAH2 | 0
MBD4 | 0
SOX30 | 0
CACNA1G | 0
GIPC2 | 0
NDST4 | 0
GPR18 | 0
ZPLD1 | 0
GUCY2C | 0
LOC388254 | 0
EZHIP | 1
LOC400796 | 0
TUFT1 | 0
ARHGAP10 | 0
LOC91353 | 0
CCDC15 | 0
LOC400553 | 0
PPP2R1A | 0
